Literature values in patent US11541152B2, “Medical device with drug-eluting coating on modified device surface” (Lutonix, Inc., priority 2018, dated 2023).
Some entries share one result that the patent states for a list of compounds.

Conditions: 4% = 40 mg/ml, low-solubility amino acid; cited from earlier work

Solubility in unbuffered water, less than 4%:
N[C@@H](Cc1c[nH]c2ccccc12)C(=O)O [tryptophan]
N[C@@H](Cc1ccccc1)C(=O)O [phenylalanine]
CC(C)C[C@H](N)C(=O)O [leucine]
